Assay results as given in the supplement of paper PMC10849652.
The list shows a part of the results. Residues, ends and D or L forms follow the SMILES beside them. *: point of attachment. Cbz = O=C(OCc1ccccc1)*

By UniProt entry, the sequences of proteins in these tests, tags left out. Where a name states a change or a piece, a line headed by the entry shows the natural chain unless it says otherwise.
UniProt Q9Y3B4: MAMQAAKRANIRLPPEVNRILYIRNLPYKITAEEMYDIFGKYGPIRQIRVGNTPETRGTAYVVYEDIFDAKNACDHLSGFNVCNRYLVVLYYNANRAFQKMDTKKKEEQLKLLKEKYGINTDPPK
UniProt Q96ES7: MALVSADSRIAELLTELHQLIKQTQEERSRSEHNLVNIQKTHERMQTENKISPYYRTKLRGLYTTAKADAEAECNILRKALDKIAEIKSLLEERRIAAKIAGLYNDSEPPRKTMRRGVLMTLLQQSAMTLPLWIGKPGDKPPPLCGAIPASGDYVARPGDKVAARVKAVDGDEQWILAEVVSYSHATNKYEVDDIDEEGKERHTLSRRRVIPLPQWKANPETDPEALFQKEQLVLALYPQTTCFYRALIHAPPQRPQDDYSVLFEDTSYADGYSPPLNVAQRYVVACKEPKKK
UniProt P50453: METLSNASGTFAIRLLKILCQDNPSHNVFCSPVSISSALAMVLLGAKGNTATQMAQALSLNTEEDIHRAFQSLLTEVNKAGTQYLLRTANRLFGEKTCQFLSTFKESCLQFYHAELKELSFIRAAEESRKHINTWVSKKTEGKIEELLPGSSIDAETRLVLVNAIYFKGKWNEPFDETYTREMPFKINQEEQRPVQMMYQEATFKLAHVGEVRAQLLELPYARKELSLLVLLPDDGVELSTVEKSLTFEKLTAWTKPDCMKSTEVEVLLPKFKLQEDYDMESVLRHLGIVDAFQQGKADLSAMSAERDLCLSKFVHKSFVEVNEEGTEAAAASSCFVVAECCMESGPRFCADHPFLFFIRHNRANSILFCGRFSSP
UniProt Q13530: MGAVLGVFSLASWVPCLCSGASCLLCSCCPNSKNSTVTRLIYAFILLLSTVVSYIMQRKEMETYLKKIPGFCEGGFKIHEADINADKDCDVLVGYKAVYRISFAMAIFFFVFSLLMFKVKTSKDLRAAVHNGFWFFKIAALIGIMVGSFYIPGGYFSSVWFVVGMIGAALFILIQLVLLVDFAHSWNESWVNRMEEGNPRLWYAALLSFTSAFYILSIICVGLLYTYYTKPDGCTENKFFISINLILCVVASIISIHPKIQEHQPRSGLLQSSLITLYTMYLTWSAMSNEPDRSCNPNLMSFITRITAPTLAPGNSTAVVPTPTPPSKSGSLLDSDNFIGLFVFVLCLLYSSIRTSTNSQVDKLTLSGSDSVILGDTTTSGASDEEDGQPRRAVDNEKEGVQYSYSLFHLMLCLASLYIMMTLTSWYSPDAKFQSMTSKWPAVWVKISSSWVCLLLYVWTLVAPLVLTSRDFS
UniProt Q9NXA8: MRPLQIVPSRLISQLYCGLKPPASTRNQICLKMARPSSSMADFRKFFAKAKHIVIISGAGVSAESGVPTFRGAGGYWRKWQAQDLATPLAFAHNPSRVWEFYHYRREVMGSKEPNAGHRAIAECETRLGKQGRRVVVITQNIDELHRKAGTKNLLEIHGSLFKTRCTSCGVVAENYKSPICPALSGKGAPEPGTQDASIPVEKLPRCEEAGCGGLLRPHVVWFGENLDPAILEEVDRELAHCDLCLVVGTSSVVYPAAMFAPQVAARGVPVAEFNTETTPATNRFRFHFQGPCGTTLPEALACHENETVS
UniProt Q13435: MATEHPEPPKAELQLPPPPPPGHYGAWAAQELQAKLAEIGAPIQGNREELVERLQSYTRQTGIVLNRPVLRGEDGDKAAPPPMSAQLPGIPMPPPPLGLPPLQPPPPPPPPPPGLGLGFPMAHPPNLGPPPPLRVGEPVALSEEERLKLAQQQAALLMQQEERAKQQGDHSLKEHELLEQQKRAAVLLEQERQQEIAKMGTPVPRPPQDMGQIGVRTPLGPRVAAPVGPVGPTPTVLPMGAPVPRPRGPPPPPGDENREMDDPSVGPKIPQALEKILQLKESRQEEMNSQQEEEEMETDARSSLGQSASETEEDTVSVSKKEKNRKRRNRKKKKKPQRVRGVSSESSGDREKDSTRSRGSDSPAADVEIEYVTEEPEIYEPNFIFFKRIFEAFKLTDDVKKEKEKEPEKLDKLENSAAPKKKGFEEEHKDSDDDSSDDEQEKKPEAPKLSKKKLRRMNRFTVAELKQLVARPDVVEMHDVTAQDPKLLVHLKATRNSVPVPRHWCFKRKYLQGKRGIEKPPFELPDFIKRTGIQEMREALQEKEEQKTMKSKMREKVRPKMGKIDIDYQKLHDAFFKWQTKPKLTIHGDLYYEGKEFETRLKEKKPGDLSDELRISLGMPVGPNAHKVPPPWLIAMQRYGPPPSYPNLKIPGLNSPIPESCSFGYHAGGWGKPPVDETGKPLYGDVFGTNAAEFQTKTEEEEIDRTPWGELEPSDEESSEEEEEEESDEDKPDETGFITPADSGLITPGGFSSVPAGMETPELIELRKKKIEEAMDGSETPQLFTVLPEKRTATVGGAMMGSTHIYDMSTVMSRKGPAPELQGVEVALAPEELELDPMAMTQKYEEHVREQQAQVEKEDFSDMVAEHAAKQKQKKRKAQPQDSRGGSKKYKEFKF
UniProt Q99719: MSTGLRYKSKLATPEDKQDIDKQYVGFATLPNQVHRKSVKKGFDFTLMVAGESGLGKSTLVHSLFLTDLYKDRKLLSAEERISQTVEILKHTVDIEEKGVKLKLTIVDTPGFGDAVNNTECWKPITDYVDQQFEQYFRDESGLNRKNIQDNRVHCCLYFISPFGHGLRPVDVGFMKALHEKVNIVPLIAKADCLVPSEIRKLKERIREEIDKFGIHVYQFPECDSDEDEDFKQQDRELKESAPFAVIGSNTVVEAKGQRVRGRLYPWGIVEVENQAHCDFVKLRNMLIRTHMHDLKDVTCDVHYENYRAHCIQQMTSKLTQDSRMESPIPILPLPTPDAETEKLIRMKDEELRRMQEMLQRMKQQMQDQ
UniProt P63208, whole entry, looked up: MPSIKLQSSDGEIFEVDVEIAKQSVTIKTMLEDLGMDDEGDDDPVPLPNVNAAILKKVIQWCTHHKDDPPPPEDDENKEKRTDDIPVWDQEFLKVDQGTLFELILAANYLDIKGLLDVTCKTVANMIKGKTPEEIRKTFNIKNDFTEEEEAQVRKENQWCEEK
UniProt P05543: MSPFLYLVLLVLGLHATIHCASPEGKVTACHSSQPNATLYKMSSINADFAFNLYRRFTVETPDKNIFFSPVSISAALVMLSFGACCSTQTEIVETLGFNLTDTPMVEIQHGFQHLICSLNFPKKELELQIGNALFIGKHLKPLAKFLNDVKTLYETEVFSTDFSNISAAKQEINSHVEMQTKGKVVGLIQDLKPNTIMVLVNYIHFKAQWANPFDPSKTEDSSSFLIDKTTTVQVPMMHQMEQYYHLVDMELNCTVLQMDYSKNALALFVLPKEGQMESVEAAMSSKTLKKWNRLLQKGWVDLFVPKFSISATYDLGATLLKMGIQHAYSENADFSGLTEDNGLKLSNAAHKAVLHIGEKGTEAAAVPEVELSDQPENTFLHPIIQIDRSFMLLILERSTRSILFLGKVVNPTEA
UniProt Q6P4A7: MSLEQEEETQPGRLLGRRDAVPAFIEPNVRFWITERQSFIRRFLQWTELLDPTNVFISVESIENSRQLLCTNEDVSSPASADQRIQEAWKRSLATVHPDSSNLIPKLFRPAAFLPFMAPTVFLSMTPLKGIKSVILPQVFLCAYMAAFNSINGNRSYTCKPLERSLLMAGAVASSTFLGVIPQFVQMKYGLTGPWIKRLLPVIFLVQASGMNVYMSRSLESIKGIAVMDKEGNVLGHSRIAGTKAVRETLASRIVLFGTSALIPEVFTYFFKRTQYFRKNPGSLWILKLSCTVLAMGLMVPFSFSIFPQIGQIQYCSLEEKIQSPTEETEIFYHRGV
UniProt Q86TU7: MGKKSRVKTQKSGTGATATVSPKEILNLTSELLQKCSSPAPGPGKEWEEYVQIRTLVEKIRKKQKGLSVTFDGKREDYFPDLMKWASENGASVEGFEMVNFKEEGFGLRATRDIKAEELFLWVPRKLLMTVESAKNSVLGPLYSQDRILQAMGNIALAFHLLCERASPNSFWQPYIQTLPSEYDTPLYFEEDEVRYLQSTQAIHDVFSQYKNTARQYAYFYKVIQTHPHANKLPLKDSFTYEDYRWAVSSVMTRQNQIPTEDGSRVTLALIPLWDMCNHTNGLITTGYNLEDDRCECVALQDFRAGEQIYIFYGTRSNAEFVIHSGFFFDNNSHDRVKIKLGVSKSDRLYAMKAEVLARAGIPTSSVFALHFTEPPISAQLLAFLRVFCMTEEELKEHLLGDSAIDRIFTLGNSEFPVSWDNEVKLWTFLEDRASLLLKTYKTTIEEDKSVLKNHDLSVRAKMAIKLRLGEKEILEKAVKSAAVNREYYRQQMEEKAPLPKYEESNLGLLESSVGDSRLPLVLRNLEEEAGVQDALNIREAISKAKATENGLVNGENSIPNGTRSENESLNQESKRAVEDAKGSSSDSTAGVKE
UniProt O75533, whole entry, looked up: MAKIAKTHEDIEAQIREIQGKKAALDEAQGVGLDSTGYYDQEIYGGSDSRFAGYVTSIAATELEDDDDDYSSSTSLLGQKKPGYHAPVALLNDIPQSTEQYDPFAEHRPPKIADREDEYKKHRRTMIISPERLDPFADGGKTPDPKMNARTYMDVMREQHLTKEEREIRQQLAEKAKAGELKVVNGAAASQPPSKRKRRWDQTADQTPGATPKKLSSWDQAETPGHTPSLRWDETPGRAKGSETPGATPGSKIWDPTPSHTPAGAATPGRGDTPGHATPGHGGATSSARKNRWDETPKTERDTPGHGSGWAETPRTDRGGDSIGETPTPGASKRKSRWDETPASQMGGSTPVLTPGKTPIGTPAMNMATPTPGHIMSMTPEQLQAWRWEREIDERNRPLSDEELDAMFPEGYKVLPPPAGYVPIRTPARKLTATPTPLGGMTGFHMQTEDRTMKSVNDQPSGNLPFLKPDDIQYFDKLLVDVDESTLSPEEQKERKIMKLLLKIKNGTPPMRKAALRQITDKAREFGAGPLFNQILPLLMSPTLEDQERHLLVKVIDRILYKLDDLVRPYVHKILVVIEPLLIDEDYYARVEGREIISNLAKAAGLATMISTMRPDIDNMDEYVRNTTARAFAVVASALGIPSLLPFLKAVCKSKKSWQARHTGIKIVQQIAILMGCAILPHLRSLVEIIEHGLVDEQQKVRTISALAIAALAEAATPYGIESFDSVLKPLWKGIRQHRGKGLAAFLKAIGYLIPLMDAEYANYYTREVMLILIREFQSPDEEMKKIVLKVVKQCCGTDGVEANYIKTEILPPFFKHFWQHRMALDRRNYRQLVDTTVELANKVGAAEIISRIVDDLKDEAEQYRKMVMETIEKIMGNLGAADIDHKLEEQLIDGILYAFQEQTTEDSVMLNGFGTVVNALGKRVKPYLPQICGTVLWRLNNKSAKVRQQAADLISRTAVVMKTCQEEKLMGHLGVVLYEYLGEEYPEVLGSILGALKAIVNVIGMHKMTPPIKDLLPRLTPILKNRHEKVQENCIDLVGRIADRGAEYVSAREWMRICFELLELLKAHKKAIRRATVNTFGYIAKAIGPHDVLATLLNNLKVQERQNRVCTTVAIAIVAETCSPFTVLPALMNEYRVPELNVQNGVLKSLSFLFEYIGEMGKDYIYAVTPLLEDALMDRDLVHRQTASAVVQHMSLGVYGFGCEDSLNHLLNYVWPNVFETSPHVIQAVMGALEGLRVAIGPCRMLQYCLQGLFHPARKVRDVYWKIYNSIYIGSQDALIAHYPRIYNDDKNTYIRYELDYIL
UniProt Q7L8J4: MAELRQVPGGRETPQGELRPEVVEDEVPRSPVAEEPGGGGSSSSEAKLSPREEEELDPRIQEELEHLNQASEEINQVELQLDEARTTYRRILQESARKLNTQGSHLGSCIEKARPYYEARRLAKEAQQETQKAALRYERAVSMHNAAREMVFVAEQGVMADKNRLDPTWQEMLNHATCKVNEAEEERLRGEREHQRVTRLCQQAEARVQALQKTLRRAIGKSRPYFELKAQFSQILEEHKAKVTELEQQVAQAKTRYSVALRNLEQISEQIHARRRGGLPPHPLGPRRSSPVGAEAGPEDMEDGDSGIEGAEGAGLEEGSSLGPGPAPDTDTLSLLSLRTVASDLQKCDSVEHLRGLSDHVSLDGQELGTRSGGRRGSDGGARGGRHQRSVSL
UniProt Q9HAT2: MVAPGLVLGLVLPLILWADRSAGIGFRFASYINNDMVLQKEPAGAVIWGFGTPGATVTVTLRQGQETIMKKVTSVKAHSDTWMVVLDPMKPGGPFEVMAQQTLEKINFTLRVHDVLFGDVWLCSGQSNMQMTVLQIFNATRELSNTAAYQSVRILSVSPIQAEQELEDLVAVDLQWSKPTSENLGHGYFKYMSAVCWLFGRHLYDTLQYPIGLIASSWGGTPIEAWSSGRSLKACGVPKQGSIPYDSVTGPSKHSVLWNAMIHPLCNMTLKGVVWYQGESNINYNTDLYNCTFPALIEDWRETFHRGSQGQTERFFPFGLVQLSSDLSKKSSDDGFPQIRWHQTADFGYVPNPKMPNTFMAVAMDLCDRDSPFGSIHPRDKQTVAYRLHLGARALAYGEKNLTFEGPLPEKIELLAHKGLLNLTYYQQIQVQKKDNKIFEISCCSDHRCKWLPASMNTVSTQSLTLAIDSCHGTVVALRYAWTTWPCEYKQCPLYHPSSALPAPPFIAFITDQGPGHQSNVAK

Columns and labels:
Assay in all cases: log2 fold change, soluble protein after heating vs DMSO (PISA); higher = thermal stabilisation; K562 cells, 10 uM, 30 min; active = over 0.2 and 3.5 SD of the protein, either way, in both replicates (recomputed)
IRAK-1-4 Inhibitor I = compound: C1COCCN1CCN2C3=CC=CC=C3N=C2NC(=O)C4=CC(=CC=C4)[N+](=O)[O-] [IRAK-1-4 Inhibitor I]
How it was run: (§1)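 Thermal stability values are relative to control samples and come from duplicates. They are expressed as log2 fold changes. For measurement, K562 cells (2×10^6 cells/mL) received 10 μM compound for 30 min, and aliquots were heated for 3 min over 48°C-58°C, pooled, and extracted at 4°C in PBS with 0.5% NP-40. Soluble protein, the supernatant after 21,000xg for 90 min, was quantified by TMTpro 16plex LC-MS/MS with equalised channel sums.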

ibrutinib = compound: C=CC(=O)N1CCC[C@@H](n2nc(-c3ccc(Oc4ccccc4)cc3)c3c(N)ncnc32)C1 [ibrutinib]
How it was run: as §1

[1] = compound: CC(=O)c1cnc2ccc(-c3cc(Cl)c(O)c(Cl)c3)nc2c1N[C@H]1CC[C@H](CN(C)C)CC1
How it was run: as §1

ralimetinib = compound: CC(C)(C)Cn1c(N)nc2ccc(-c3[nH]c(C(C)(C)C)nc3-c3ccc(F)cc3)nc21 [ralimetinib]
How it was run: as §1

[2] = compound: CC(C)(O)CC(=O)NCCn1ccc2ncnc(Nc3ccc(Oc4cccc(C(F)(F)F)c4)c(Cl)c3)c21
How it was run: as §1

[3] = compound: CC(C)C1=C2N=C(C=C(N2N=C1)NCC3=CC=CC=C3)NCCCCCCN
How it was run: as §1

[4] = compound: CC(C)C[C@@H](C=O)NC(=O)[C@H](CC(C)C)NC(=O)[C@H](CC(C)C)NC(=O)OCc1ccccc1
How it was run: as §1

pinometostat = compound: CC(C)N(C[C@H]1O[C@@H](n2cnc3c(N)ncnc32)[C@H](O)[C@@H]1O)[C@H]1C[C@@H](CCc2nc3cc(C(C)(C)C)ccc3[nH]2)C1 [pinometostat]
How it was run: as §1

[5] = compound: CC1=C(C(CC(=O)N1)C2=CC=C(C=C2)C(F)(F)F)C(=O)NC3=C(C=C4C(=C3)C=NN4)F
How it was run: as §1

[6] = compound: CC1=C(C2=C(C=C1)C(=O)C3=CC=CC=C3N2CCCN)C
How it was run: as §1

Measured: log2 fold change

SELENOT (UniProt P62341)
inactive: IRAK-1-4 Inhibitor I 0.086 | ibrutinib -0.046 | [1] 0.173 | ralimetinib -0.038 | [2] -0.09 | [3] -0.02 | [4] 0.048 | pinometostat 0.077 | [5] 0.146 | [6] 0.008

SEPTIN7 (UniProt Q16181)
inactive: IRAK-1-4 Inhibitor I -0.014 | ibrutinib -0.025 | [1] 0.001 | ralimetinib 0.058 | [2] -0.014 | [3] 0.042 | [4] -0.056 | pinometostat -0.061 | [5] 0.029 | [6] 0.01

SF3B6 (UniProt Q9Y3B4)
inactive: IRAK-1-4 Inhibitor I -0.061 | ibrutinib 0.122 | [1] -0.065 | ralimetinib 0 | [2] 0.08 | [3] -0.204 | [4] 0.061 | pinometostat 0.162 | [5] -0.046 | [6] -0.144

SFSWAP isoform 2 (UniProt Q12872)
inactive: IRAK-1-4 Inhibitor I 0.024 | ibrutinib 0.108 | [1] -0.228 | ralimetinib 0.014 | [2] -0.004 | [3] -0.037 | [4] 0.09 | pinometostat 0.006 | [5] 0.1 | [6] 0.049

SF1 isoform 5 (UniProt Q15637)
inactive: IRAK-1-4 Inhibitor I 0.039 | ibrutinib 0.023 | [1] 0.028 | ralimetinib -0.034 | [2] 0.007 | [3] 0.019 | [4] 0.01 | pinometostat -0.031 | [5] 0.01 | [6] 0.016

SGF29 (UniProt Q96ES7)
inactive: IRAK-1-4 Inhibitor I 0.016 | ibrutinib 0.071 | [1] -0.064 | ralimetinib -0.013 | [2] -0.017 | [3] 0.121 | [4] 0.059 | pinometostat 0.033 | [5] -0.028 | [6] 0.067

SEL1L3 (UniProt Q68CR1)
inactive: IRAK-1-4 Inhibitor I 0.017 | ibrutinib 0.013 | [1] -0.034 | ralimetinib -0.003 | [2] -0.006 | [3] -0.166 | [4] 0.035 | pinometostat 0.064 | [5] -0.059 | [6] -0.098

SERPINC1 (UniProt P01008)
inactive: IRAK-1-4 Inhibitor I 0.089 | ibrutinib 0.284 | [1] 0.039 | ralimetinib 0.02 | [2] 0.268 | [3] 0.111 | [4] 0.091 | pinometostat -0.059 | [5] 0.026 | [6] -0.359

SERPINB9 (UniProt P50453)
inactive: IRAK-1-4 Inhibitor I 0.033 | ibrutinib 0.02 | [1] 0.01 | ralimetinib -0.02 | [2] -0.029 | [3] 0.072 | [4] -0.021 | pinometostat -0.033 | [5] -0.03 | [6] 0.019

SERINC3 (UniProt Q13530)
active: [3] -0.399
inactive: IRAK-1-4 Inhibitor I -0.006 | ibrutinib -0.01 | [1] -0.027 | ralimetinib -0.14 | [2] -0.304 | [4] 0.17 | pinometostat -0.01 | [6] -0.039

SIRT5 (UniProt Q9NXA8)
inactive: IRAK-1-4 Inhibitor I 0.048 | ibrutinib 0.081 | [1] -0.009 | ralimetinib -0.009 | [2] -0.025 | [3] 0.053 | [4] 0.003 | pinometostat -0.052 | [5] -0.001 | [6] 0.024

SF3B2 (UniProt Q13435)
inactive: IRAK-1-4 Inhibitor I -0.101 | ibrutinib -0.032 | [1] -0.035 | ralimetinib 0.062 | [2] 0.024 | [3] -0.039 | [4] 0.054 | pinometostat 0.075 | [5] 0.037 | [6] -0.066

SHOC2 (UniProt Q9UQ13)
inactive: IRAK-1-4 Inhibitor I 0.016 | ibrutinib 0.022 | [1] -0.046 | ralimetinib -0.015 | [2] -0.024 | [3] -0.005 | [4] 0.016 | pinometostat 0.066 | [5] -0.036 | [6] 0.092

SEPTIN5 (UniProt Q99719)
inactive: IRAK-1-4 Inhibitor I 0.014 | ibrutinib -0.013 | [1] -0.031 | ralimetinib -0.084 | [2] -0.03 | [3] 0.034 | [4] -0.051 | pinometostat -0.041 | [6] 0.011

SH3GLB2 (UniProt Q9NR46)
active: [3] -0.27
inactive: IRAK-1-4 Inhibitor I 0.028 | ibrutinib 0.004 | [1] -0.047 | ralimetinib 0.033 | [2] 0.028 | [4] 0.066 | pinometostat -0.004 | [6] -0.021

SHCBP1 (UniProt Q8NEM2)
active: [3] -0.516
inactive: IRAK-1-4 Inhibitor I -0.11 | ibrutinib -0.072 | [1] -0.013 | ralimetinib 0.025 | [2] -0.121 | [4] 0.012 | pinometostat 0.066 | [6] 0.02

SKP1 (UniProt P63208)
inactive: IRAK-1-4 Inhibitor I 0.069 | ibrutinib 0.054 | [1] 0.03 | ralimetinib -0.02 | [2] -0.045 | [3] 0.068 | [4] -0.069 | pinometostat -0.08 | [6] -0.049

SERPINA7 (UniProt P05543)
inactive: IRAK-1-4 Inhibitor I 0.095 | ibrutinib 0.229 | [1] 0.227 | ralimetinib -0.062 | [2] 0.314 | [3] 0.066 | [4] 0.043 | pinometostat 0 | [6] -0.245

SH3GL1 (UniProt Q99961)
inactive: IRAK-1-4 Inhibitor I -0.09 | ibrutinib -0.021 | [1] -0.059 | ralimetinib 0.052 | [2] -0.097 | [3] -0.238 | [4] 0.013 | pinometostat 0.032 | [6] 0.037

SEC63 (UniProt Q9UGP8)
inactive: IRAK-1-4 Inhibitor I 0.001 | ibrutinib -0.029 | [1] 0.003 | ralimetinib -0.036 | [2] -0.008 | [3] 0.085 | [4] -0.023 | pinometostat -0.038 | [5] 0 | [6] 0.02

SETMAR (UniProt Q53H47)
active: [6] 0.509
inactive: IRAK-1-4 Inhibitor I 0.093 | ibrutinib -0.04 | [1] -0.135 | ralimetinib -0.025 | [2] 0.047 | [3] 0.227 | [4] -0.061 | pinometostat 0.078

SENP6 (UniProt Q9GZR1)
inactive: IRAK-1-4 Inhibitor I 0.005 | ibrutinib -0.018 | [1] -0.063 | ralimetinib -0.031 | [2] -0.058 | [3] 0.094 | [4] 0.043 | pinometostat 0.004 | [6] 0.057

Retrieved one by one from the list above, two records:
SH3GL1 (UniProt Q99961)
inactive: IRAK-1-4 Inhibitor I -0.09 | ibrutinib -0.021 | [1] -0.059 | ralimetinib 0.052 | [2] -0.097 | [3] -0.238 | [4] 0.013 | pinometostat 0.032 | [6] 0.037

SERPINA7 (UniProt P05543)
inactive: IRAK-1-4 Inhibitor I 0.095 | ibrutinib 0.229 | [1] 0.227 | ralimetinib -0.062 | [2] 0.314 | [3] 0.066 | [4] 0.043 | pinometostat 0 | [6] -0.245

The list continues.

SERINC1 (UniProt Q9NRX5)
active: [3] -0.568
inactive: IRAK-1-4 Inhibitor I 0 | ibrutinib 0.023 | [1] 0 | ralimetinib -0.106 | [2] -0.235 | [4] 0.095 | pinometostat -0.022 | [6] 0

SFXN4 (UniProt Q6P4A7)
inactive: IRAK-1-4 Inhibitor I 0.012 | ibrutinib -0.02 | [1] -0.015 | ralimetinib -0.057 | [2] 0.038 | [3] -0.014 | [4] 0.037 | pinometostat -0.018 | [5] 0.02 | [6] 0.042

SETD3 (UniProt Q86TU7)
inactive: IRAK-1-4 Inhibitor I -0.007 | ibrutinib 0.011 | [1] -0.018 | ralimetinib -0.041 | [2] -0.013 | [3] 0.027 | [4] -0.022 | pinometostat 0.002 | [6] 0.05

SF3B1 (UniProt O75533)
inactive: IRAK-1-4 Inhibitor I -0.036 | ibrutinib -0.004 | [1] -0.062 | ralimetinib 0.023 | [2] -0.045 | [3] -0.185 | [4] 0.028 | pinometostat 0.052 | [5] -0.01 | [6] -0.074

SFN (UniProt P31947)
inactive: IRAK-1-4 Inhibitor I 0.067 | ibrutinib -0.037 | [1] -0.008 | ralimetinib -0.077 | [2] -0.015 | [3] 0.033 | [4] -0.027 | pinometostat -0.049 | [5] 0.003 | [6] 0.011

SET isoform 2 (UniProt Q01105)
inactive: IRAK-1-4 Inhibitor I 0.064 | ibrutinib 0.003 | [1] -0.013 | ralimetinib -0.054 | [2] 0.038 | [3] 0.07 | [4] 0.012 | pinometostat -0.057 | [5] 0.008 | [6] -0.018

SH3BP5L (UniProt Q7L8J4)
inactive: IRAK-1-4 Inhibitor I -0.041 | ibrutinib -0.052 | [1] -0.004 | ralimetinib -0.05 | [2] 0.037 | [3] -0.085 | [4] -0.043 | pinometostat -0.015 | [5] -0.02 | [6] 0.049

SIAE (UniProt Q9HAT2)
inactive: IRAK-1-4 Inhibitor I -0.012 | ibrutinib -0.075 | [1] -0.024 | ralimetinib -0.282 | [2] -0.174 | [3] 0.007 | [4] 0.1 | pinometostat -0.077 | [5] 0.086 | [6] 0.013

SHMT1 (UniProt P34896)
inactive: IRAK-1-4 Inhibitor I 0.042 | ibrutinib 0.028 | [1] 0.015 | ralimetinib -0.01 | [2] -0.054 | [3] 0.063 | [4] 0.014 | pinometostat 0.001 | [5] 0.059 | [6] 0.036
